Assay results taken from PubChem BioAssay AID624246 (National Center for Advancing Translational Sciences (NCATS), 2012).
Screen size: about 370,000 compounds; about 100 (0.027%) were called active. This list was built around the results that the source calls inconclusive (neither active nor inactive); the mix of calls is not that of the screen. Calls follow the shape of the dose curve; as a rule, active = well fitted inhibition curve with a large enough effect in the polarisation, with a control signal flat; inconclusive = small, poorly fitted or top-dose-only effect, or effect the other way, or a change in a side signal; inactive = no such curve, though single readings can be large or run the other way; the % refers to the polarisation. Where the call is inconclusive, the potency comes from a doubtful curve fit. A note “side channel” means that the fit belongs to a control or component signal, not to the main read-out.

Protein sequences, listed by entry. Tags and fused reporters are not part of them. Lines headed by an entry give the natural chain unless they say otherwise; changes in a name come on top.
UniProt P11308: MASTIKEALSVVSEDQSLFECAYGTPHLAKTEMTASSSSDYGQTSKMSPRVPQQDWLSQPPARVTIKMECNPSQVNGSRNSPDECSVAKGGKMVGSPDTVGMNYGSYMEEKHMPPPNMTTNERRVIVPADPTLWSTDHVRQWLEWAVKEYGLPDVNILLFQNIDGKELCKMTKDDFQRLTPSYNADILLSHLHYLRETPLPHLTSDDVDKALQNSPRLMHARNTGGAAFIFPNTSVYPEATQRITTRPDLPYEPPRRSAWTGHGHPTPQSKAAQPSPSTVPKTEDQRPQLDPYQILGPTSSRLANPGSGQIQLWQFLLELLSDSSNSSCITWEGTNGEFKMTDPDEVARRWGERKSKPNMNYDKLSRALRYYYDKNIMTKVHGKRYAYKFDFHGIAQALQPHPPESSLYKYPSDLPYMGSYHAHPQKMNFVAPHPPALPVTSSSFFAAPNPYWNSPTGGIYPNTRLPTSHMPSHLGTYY

Each compound was assayed against Transcriptional regulator ERG (Homo sapiens) (UniProt P11308) (assay: qHTS for Small Molecule Inhibitors of the ERG Ets/DNA interaction). Settings: fluorescence polarization, His-ERG Ets domain / labelled DNA; FP activity, negative = inhibition: at 76.9 µM (top of the series).
In short: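 His-tagged ERG Ets domain (1 uM in the protein solution; 300mM KCl, 50mM Tris-HCl, 1mM EDTA, 1mM DTT, pH 7.5) received compound, then a probe mix of 5 nM fluorescein-DNA and 100nM Texas-615-DNA. Fluorescence polarization was read for both dyes.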
For FP activity, negative = inhibition in this document: % of control where 0% means no effect.
Potency is read from the fitted curve at half-maximal effect.

SMILES | FP activity, negative = inhibition | Potency
O=C1Nc2ccc(C(=O)O)c(O)c2C1=O | inactive: 13.8% | 
Cc1cccn2c(CN(C)CCC3CCCCO3)c(C(=O)N3CCCCC3)nc12 (configuration not stated) |  | inconclusive: 35.5 µM [quencher, side channel, single point]
CC(C)C(C(=O)O)N1CCS(=O)(=O)CC1 (configuration not stated) |  | inconclusive: 2.82 µM [inhibitor, partial curve, poor fit]
O=C(O)COc1ccc(F)cc1Br |  | inconclusive: 50.1 µM [inhibitor, single point]
COc1cc(S(=O)(=O)Nc2cccc(C(=O)O)c2)c(OC)cc1Cl |  | inconclusive: 28.2 µM [fluorescent, side channel, partial curve, poor fit]
CCOC(=O)CN(C(=O)CSc1nnc(CNc2ccc(F)cc2)o1)c1ccccc1 | inactive: -2.75% | 
CC1CCN(S(=O)(=O)c2ccc3c(c2)c(=O)c(C(=O)NCc2ccc(Cl)cc2)cn3C)CC1 |  | inconclusive: 50.1 µM [quencher, side channel, single point]
O=C(NC1CCCCC1)C(c1cccnc1)N(C(=O)c1csnn1)c1ccccc1F (configuration not stated) | inactive: 1.32% | 
O=C(CNC(=S)N(CCCN1CCOCC1)Cc1cccs1)NC1CCCCC1 |  | inconclusive: 25.1 µM [inhibitor, partial curve]
O=C(NC1CCCCCC1)c1ccc(-n2cnnc2)cc1 |  | inconclusive: 10 µM [inhibitor, single point]
CCOC(=O)c1nc2cc3n(c(CC(C)C)c-2c1C)CC(C)=C3C |  | inconclusive: 50.1 µM [fluorescent, side channel, single point]
Cc1nc2ccccc2n1CC(=O)NC1CCCC1 | inactive: 14.7% | 
COn1c(SCc2ccccc2)nc2ccccc2c1=O | inactive: -1.93% | 
CCOc1ccc(/C=C/C(=O)OCC(=O)Nc2cccc(S(=O)(=O)N3CCCC3)c2)cc1 |  | inconclusive: 31.6 µM [inhibitor, single point]
COc1ccc(-c2noc(Cn3c(=O)c4ccccc4n(CC(=O)Nc4cccc(C(F)(F)F)c4)c3=O)n2)cc1 |  | inconclusive: 12.6 µM [inhibitor, partial curve, poor fit]
O=C(CCl)N(Cc1cccc([N+](=O)[O-])c1)c1cccc(Cl)c1 |  | inconclusive: 0.891 µM [quencher, side channel, full curve, poor fit]
CCCCNc1ccc2c3c(cccc13)C(=O)N(CCCC)C2=O |  | inconclusive: 31.6 µM [inhibitor, partial curve]
Cc1cc(C)n2nc(-c3ccco3)nc2n1 | inactive: -2.24% | 
CCn1c(CSc2nnc3ccccn23)nc2cc(C(=O)O)ccc21 |  | inconclusive: 7.08 µM [fluorescent, side channel, full curve]
CCCn1c(=N)n(CC(O)COc2ccc(C)cc2)c2ccccc21 (configuration not stated) |  | inconclusive: 44.7 µM [fluorescent, side channel, single point]
O=C(c1ccco1)N1CCN(Cc2nc(Cc3ccccc3)no2)CC1 |  | inconclusive: 2.24 µM [quencher, side channel, partial curve, poor fit]

Pulled by structure from the entries so far (2):
SMILES | FP activity, negative = inhibition | Potency
CCOC(=O)CN(C(=O)CSc1nnc(CNc2ccc(F)cc2)o1)c1ccccc1 | inactive: -2.75% | 
COc1cc(S(=O)(=O)Nc2cccc(C(=O)O)c2)c(OC)cc1Cl |  | inconclusive: 28.2 µM [fluorescent, side channel, partial curve, poor fit]

(further entries)

SMILES | FP activity, negative = inhibition | Potency
O=C1CCCCCN1Sc1ccccc1 | inactive: 6.79% | 
O=C(NCCN1CCCC1)c1ccc2c(c1)N(Cc1cccc(Cl)c1)C(=O)c1ccccc1S2(=O)=O |  | inconclusive: 3.98 µM [inhibitor, partial curve, poor fit]
COc1cccc(N=C2CC(C)(C)CC(=O)/C2=C(/O)c2ccccc2)c1 |  | inconclusive: 11.2 µM [inhibitor, single point]
CCC(=O)N/N=C(\C)CC(=O)Nc1ccc2c(c1)OCCO2 |  | inconclusive: 12.6 µM [quencher, side channel, partial curve, poor fit]
COc1cc(NCCCNC(C)C)c2nccc(C)c2c1 |  | inconclusive: 50.1 µM [inhibitor, single point]
NC12CC3CC(CC(C3)C1)C2 |  | inconclusive: 15.8 µM [inhibitor, partial curve, poor fit]
Cc1cccc(N2C(=O)CC(N3CCN(c4ccccn4)CC3)C2=O)c1 (configuration not stated) |  | inconclusive: 2 µM [quencher, side channel, partial curve, poor fit]
S=c1[nH]nc(-c2ccco2)n1/N=C/c1ccc(Cl)cc1Cl | inactive: -0.184% | 
CC(C)CCN1CCN(C2CCN(c3ccc4c(c3)OCO4)CC2)CC1CCO (configuration not stated) |  | inconclusive: 11.2 µM [inhibitor, partial curve, poor fit]
Cc1nn(-c2ccc(Cl)cc2)c2[nH]c(CCl)cc(=O)c12 |  | inconclusive: 50.1 µM [inhibitor, single point]
CCCS(=O)(=O)c1nc(S(=O)(=O)c2ccc(C)cc2)c(N2CCC(C)CC2)s1 | inactive: 1.78% | 
COc1ccc(C(=O)NCC(=O)N/N=C/c2cccnc2)cc1 |  | inconclusive: 7.08 µM [inhibitor, partial curve, poor fit]
Cc1ccc2c(C)c(C(=O)N(C)C(C)c3ccon3)oc2c1C (configuration not stated) |  | active: 31.6 µM
Cc1ccc(NC(=O)COC(=O)/C=C/c2c(C)nn(-c3ccc(F)cc3)c2Cl)cc1F |  | inconclusive: 63.1 µM [inhibitor, single point]
COc1ccc(OCC(=O)OCc2cc(=O)n3nc(-c4cccs4)sc3n2)cc1 |  | inconclusive: 100 µM [inhibitor, single point]
CCOC(=O)c1cc(C(=O)OCC)cc(-n2cc(O)c(C(=O)OCC)n2)c1 | inactive: -4.64% | 
COc1cc(OC)c(NC(=O)CCc2c(C)nc3ncnn3c2C)cc1Cl |  | inconclusive: 11.2 µM [fluorescent, partial curve, poor fit]
COc1ccccc1Nc1nc(NCCCN(C)C)nc(N)c1[N+](=O)[O-] |  | inconclusive: 28.2 µM [quencher, side channel, partial curve, poor fit]
Cc1cc(N2CCN(C)CC2)nc2ccc(NC(=S)NCCCN3CCc4ccccc4C3)cc12 | inactive: -6.07% | 
C=CCn1c(=O)[nH]c2cc(C(=O)N3CC=C(c4ccccc4)CC3)ccc2c1=O |  | inconclusive: 11.2 µM [inhibitor, single point]
Cc1cccn2c(=O)cc(COc3ccc(NC(=O)C(C)C)cc3)nc12 |  | inconclusive: 63.1 µM [inhibitor, single point]

SMILES | FP activity, negative = inhibition | Potency
Cc1ccc(C2=NN(C(=O)CN3C(=O)c4ccccc4S3(=O)=O)C(c3ccco3)C2)cc1 (configuration not stated) |  | inconclusive: 7.94 µM [quencher, side channel, full curve, poor fit]
CC1CCCCC1NC(=O)/C(C#N)=C/c1ccc(OCC(N)=O)cc1 (configuration not stated) |  | inconclusive: 12.6 µM [inhibitor, partial curve, poor fit]
O=C(NC1CCCCC1)c1ccc(S(=O)(=O)NCc2ccco2)cc1 | inactive: -4.8% | 
Cc1nn(Cc2ccc(F)cc2)c(C)c1NC(=O)C1c2ccccc2Oc2ccccc21 | inactive: -10.3% | 
Oc1ccc(Nc2ccc3ccccc3c2)cc1 |  | inconclusive: 35.5 µM [inhibitor, single point]
Nc1ccc2nc(SCC(=O)N3CCOCC3)sc2c1 |  | inconclusive: 7.94 µM [inhibitor, single point]
Cc1noc(NS(=O)(=O)c2ccc(NC(=O)Nc3ccc(Cl)c(Cl)c3)cc2)c1C |  | inconclusive: 25.1 µM [quencher, side channel, partial curve, poor fit]
COc1ccccc1NS(=O)(=O)c1ccc(C)c(NC(=O)c2c(C)noc2C)c1 |  | inconclusive: 3.55 µM [inhibitor, partial curve, poor fit]
Cc1cc(OCc2nnc(SC(C)C(=O)O)n2-c2ccccc2)ccc1Cl (configuration not stated) |  | inconclusive: 20 µM [inhibitor, partial curve, poor fit]
CCOC(=O)N1CCc2c(sc(NC(=O)CN3CCOCC3)c2C(=O)Nc2ccccc2)C1 |  | inconclusive: 0.891 µM [quencher, side channel, full curve, poor fit]
COC(=O)c1c(C(=O)OC)c(-c2ccc(C(C)(C)C)cc2)n2c1CS(=O)C2 (configuration not stated) |  | inconclusive: 44.7 µM [inhibitor, single point]
CN1CCN(C(=O)c2ccc3c(c2)N(Cc2ccc(Cl)cc2)C(=O)c2ccccc2S3(=O)=O)CC1 |  | inconclusive: 1.78 µM [quencher, side channel, partial curve, poor fit]
CCN1CCN(c2ccc(S(=O)(=O)N3CCCCC3)cc2NC(=O)c2ccc([N+](=O)[O-])o2)CC1 |  | inconclusive: 3.98 µM [inhibitor, partial curve, poor fit]
O=C(CSc1ccc(Cl)cc1)Nc1ccc(N2CCN(c3ccccc3)CC2)c(F)c1 | inactive: -1.42% | 
CC1CN(C(=S)NC(=O)c2ccc([N+](=O)[O-])cc2)CC(C)O1 (configuration not stated) | inactive: -0.741% | 
CN1C(=O)NC(c2ccccc2[N+](=O)[O-])C2=C1CCCC2=O (configuration not stated) |  | inconclusive: 35.5 µM [inhibitor, partial curve, poor fit]
CCN(CC(=O)NC1CCS(=O)(=O)C1)S(=O)(=O)c1cc(C)ccc1C (configuration not stated) | inactive: -5.28% | 
COc1ccc(C(CC(=O)N2CCCCC2)c2c(OC)cc(OC)c3c(-c4ccccc4)cc(=O)oc23)cc1 (configuration not stated) | inactive: 9.14% | 
O=C(NCC(=O)N(c1ccccc1)C(C(=O)NC1CCCCC1)c1cccnc1)c1ccco1 (configuration not stated) |  | inconclusive: 35.5 µM [inhibitor, partial curve, poor fit]
COc1cccc(CNC(=O)c2ccc3c(Cl)c4c(nc3c2)CCCC4)c1 |  | inconclusive: 5.01 µM [quencher, side channel, partial curve, poor fit]
